Measurements published in patent US8198284B2, “Treatment of neurodegenerative disorders with thiourea compounds” (National Health Research Institutes, priority 2008, dated 2012).
Some of these results come from one statement about several compounds together. Some ranges recur; such a range may be that of the whole group of compounds.

tested on: Microglia; test: Enhancement of microglial Aβ clearance and phagocytosis in vitro; type: cell-based; conditions: compound at 1 μM for 24 hr; FITC-labeled Aβ1-42 100 nM; residual Aβ in culture medium
Protocol: Compounds were evaluated for their efficacy in enhancing microglial phagocytosis of Aβ (or Aβ clearance). […] Lipopolysaccharide (LPS) at 10 ng/mL was added as a positive control, which is known to increase Aβ uptake. The culture medium was subjected to Western blotting for evaluating residual Aβ left in the medium. The mean values of fluorescent intensity measured by flow cytometer were compared between cells pretreated with the test compound and the ones in non-treated controls.

Row | Compound | Aβ level relative to non-treated control
1 | NC(=S)Nc1cccc(OCCCCCNC(=S)Nc2cccc3ccccc23)c1 [Compound 1, 1-naphthalen-1-yl-3-[5-(3-thioureido-phenoxy)-pentyl]-thiourea] | 45%-90%
2 | NC(=S)Nc1cccc(OCCCCCN2CCN(c3ccc(F)cc3)CC2)c1 [Compound 2, (3-{5-[4-(4-fluoro-phenyl)-piperazin-1-yl]-pentyloxy}-phenyl)-thiourea] | 45%-90%
3 | NC(=S)Nc1cccc(OCCCCCOc2cccc(Nc3ccccc3)c2)c1 [Compound 3, {3-[5-(3-Phenylamino-phenoxy)-pentyloxy]-phenyl}-thiourea] | 45%-90%
4 | CCCCCNC(=S)N1CCc2ccccc21 [Compound 4, 2,3-Dihydro-indole-1-carbothioic acid pentylamide] | 45%-90%
5 | N#Cc1ccc(C(=O)NC(=S)N2CCc3c(OCCCCCOc4ccc(Cl)cc4)cccc32)cc1 [Compound 5, N-{4-[5-(4-chloro-phenoxy)-pentyloxy]-2,3-dihydro-indole-1-carbothioyl}-4-cyano-benzamide] | 45%-90%
6 | O=C(NC(=S)N1CCc2cc(OCc3ccccc3)ccc21)c1ccccc1 [Compound 6, N-(5-benzyloxy-2,3-dihydro-indole-1-carbothioyl)-benzamide] | 45%-90%
